No constants are given. Whether binding was seen depends on the method and setting. In cells and extracts the contact can be indirect. A yes stands for co-enrichment or nearness to the bait. Other partners may have been found.

By UniProt entry, the sequences of proteins in these tests, tags left out.
UniProt Q8N122: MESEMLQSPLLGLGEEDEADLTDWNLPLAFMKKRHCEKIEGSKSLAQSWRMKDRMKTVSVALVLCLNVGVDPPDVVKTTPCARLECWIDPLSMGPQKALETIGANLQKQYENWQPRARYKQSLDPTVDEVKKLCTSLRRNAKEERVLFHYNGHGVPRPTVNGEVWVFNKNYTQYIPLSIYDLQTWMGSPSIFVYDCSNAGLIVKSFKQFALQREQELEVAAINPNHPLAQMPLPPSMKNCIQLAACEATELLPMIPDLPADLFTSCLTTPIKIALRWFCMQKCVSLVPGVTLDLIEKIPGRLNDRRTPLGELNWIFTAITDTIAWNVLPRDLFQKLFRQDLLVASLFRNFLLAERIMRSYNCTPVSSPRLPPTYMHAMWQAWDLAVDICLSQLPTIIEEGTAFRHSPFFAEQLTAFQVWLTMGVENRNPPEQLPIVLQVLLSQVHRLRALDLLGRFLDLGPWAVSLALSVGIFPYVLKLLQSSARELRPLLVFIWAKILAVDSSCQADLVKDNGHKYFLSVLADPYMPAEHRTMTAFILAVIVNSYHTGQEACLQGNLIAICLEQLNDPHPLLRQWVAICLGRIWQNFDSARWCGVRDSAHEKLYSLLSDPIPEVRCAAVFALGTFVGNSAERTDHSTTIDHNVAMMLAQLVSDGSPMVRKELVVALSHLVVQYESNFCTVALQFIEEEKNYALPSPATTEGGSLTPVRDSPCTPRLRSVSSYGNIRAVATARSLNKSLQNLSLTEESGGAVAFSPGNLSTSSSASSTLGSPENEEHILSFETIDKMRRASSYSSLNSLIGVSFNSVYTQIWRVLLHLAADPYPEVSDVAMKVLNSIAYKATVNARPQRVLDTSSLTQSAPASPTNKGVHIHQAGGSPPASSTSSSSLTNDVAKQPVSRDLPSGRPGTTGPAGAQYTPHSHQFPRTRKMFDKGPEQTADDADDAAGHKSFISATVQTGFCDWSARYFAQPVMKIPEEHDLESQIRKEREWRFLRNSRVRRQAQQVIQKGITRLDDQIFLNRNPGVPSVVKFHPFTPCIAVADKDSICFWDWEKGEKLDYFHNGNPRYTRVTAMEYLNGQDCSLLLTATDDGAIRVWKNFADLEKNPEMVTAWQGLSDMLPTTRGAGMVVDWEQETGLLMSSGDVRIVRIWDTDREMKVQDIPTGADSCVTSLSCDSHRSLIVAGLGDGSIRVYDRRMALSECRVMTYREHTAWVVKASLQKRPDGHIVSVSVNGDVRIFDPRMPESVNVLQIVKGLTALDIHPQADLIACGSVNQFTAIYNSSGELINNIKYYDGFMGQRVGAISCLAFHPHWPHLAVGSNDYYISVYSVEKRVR
UniProt P04406: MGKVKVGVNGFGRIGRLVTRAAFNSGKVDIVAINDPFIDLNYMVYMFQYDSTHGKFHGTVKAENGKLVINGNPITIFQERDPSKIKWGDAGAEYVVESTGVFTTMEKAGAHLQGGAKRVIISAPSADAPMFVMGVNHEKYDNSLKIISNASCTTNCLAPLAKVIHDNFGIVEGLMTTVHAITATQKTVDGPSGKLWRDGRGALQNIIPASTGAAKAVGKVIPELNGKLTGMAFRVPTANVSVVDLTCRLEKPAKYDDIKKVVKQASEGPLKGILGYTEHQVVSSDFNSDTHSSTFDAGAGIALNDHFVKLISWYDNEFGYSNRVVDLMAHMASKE

The target in test [1] is regulatory-associated protein of mTOR (Raptor) (human (endogenous in CCRF-CEM and HEK293)) (UniProt Q8N122). The test is described as follows: affinity purification with mass spectrometry; endogenous raptor IP (raptor antibody, Dynabeads G) from CCRF-CEM and HEK293 lysates; Coomassie-stained lane cut, in-gel trypsin digestion, nano-LC ESI Q-TOF MS/MS; proteins of the mock control subtracted.

A further test addresses myc-tag raptor (UniProt Q8N122). The test can be described thus: affinity purification with mass spectrometry; myc-tag raptor precipitated with myc-tag monoclonal antibody conjugated agarose beads (spin column) from transfected CCRF-CEM and HEK293 lysates in CHAPS buffer, overnight at 4 °C, glycine pH 2.8 elution; silver-stained lane cut, in-gel trypsin digestion, nano-LC ESI Q-TOF MS/MS; proteins of the mock control subtracted.

“glyceraldehyde 3 phosphate dehydrogenase (from UniProt P04406 1-335)”: the binding result (in test [1]; with myc-tag raptor) was “binds” each time.

B1: enhancer of mRNA decapping protein 4 (protein, UniProt Q6P2E9 1-1401)
chain: MASCASIDIEDATQHLRDILKLDRPAGGPSAESPRPSSAYNGDLNGLLVPDPLCSGDSTSANKTGLRTMPPINLQEKQVICLSGDDSSTCIGILAKEVEIVASSDSSISSKARGSNKVKIQPVAKYDWEQKYYYGNLIAVSNSFLAYAIRAANNGSAMVRVISVSTSERTLLKGFTGSVADLAFAHLNSPQLACLDEAGNLFVWRLALVNGKIQEEILVHIRQPEGTPLNHFRRIIWCPFIPEESEDCCEESSPTVALLHEDRAEVWDLDMLRSSHSTWPVDVSQIKQGFIVVKGHSTCLSEGALSPDGTVLATASHDGYVKFWQIYIEGQDEPRCLHEWKPHDGRPLSCLLFCDNHKKQDPDVPFWRFLITGADQNRELKMWCTVSWTCLQTIRFSPDIFSSVSVPPSLKVCLDLSAEYLILSDVQRKVLYVMELLQNQEEGHACFSSISEFLLTHPVLSFGIQVVSRCRLRHTEVLPAEEENDSLGADGTHGAGAMESAAGVLIKLFCVHTKALQDVQIRFQPQLNPDVVAPLPTHTAHEDFTFGESRPELGSEGLGSAAHGSQPDLRRIVELPAPADFLSLSSETKPKLMTPDAFMTPSASLQQITASPSSSSSGSSSSSSSSSSSLTAVSAMSSTSAVDPSLTRPPEELTLSPKLQLDGSLTMSSSGSLQASPRGLLPGLLPAPADKLTPKGPGQVPTATSALSLELQEVEPLGLPQASPSRTRSPDVISSASTALSQDIPEIASEALSRGFGSSAPEGLEPDSMASAASALHLLSPRPRPGPELGPQLGLDGGPGDGDRHNTPSLLEAALTQEASTPDSQVWPTAPDITRETCSTLAESPRNGLQEKHKSLAFHRPPYHLLQQRDSQDASAEQSDHDDEVASLASASGGFGTKVPAPRLPAKDWKTKGSPRTSPKLKRKSKKDDGDAAMGSRLTEHQVAEPPEDWPALIWQQQRELAELRHSQEELLQRLCTQLEGLQSTVTGHVERALETRHEQEQRRLERALAEGQQRGGQLQEQLTQQLSQALSSAVAGRLERSIRDEIKKTVPPCVSRSLEPMAGQLSNSVATKLTAVEGSMKENISKLLKSKNLTDAIARAAADTLQGPMQAAYREAFQSVVLPAFEKSCQAMFQQINDSFRLGTQEYLQQLESHMKSRKAREQEAREPVLAQLRGLVSTLQSATEQMAATVAGSVRAEVQHQLHVAVGSLQESILAQVQRIVKGEVSVALKEQQAAVTSSIMQAMRSAAGTPVPSAHLDCQAQQAHILQLLQQGHLNQAFQQALTAADLNLVLYVCETVDPAQVFGQPPCPLSQPVLLSLIQQLASDLGTRTDLKLSYLEEAVMHLDHSDPITRDHMGSVMAQVRQKLFQFLQAEPHNSLGKAARRLSLMLHGLVTPSLP
For B1, the binding entry (in test [1]; with myc-tag raptor) was “binds” each time.

These data come from PMC3975426.
